Primary screen of a compound library

By UniProt entry, the sequences of proteins in these tests, tags left out.
UniProt E9BF75, entry or part of it: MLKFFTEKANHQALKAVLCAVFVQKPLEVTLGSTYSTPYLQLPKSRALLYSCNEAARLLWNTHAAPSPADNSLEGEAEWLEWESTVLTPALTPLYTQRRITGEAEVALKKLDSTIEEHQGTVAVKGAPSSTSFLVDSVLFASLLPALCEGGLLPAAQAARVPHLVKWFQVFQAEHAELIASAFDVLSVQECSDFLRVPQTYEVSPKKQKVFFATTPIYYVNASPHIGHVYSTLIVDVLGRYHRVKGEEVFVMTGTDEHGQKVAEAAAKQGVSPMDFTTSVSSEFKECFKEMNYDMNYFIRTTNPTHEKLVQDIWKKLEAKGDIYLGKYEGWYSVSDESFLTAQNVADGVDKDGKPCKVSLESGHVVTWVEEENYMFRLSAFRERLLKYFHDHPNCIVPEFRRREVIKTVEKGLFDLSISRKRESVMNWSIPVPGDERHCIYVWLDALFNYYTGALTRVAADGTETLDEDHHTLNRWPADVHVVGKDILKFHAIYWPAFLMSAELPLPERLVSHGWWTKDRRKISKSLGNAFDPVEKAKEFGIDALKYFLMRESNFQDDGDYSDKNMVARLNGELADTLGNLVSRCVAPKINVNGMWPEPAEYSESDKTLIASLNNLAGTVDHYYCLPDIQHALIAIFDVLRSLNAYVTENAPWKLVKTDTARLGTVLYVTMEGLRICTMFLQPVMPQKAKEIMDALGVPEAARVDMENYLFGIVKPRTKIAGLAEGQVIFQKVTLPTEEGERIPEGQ

Data taken from ChEMBL document CHEMBL3988442, “University of Dundee, Small-Polar-MMV Screening Library” (2021).

Results are percentages, as filed. The record does not define 0% and 100%; most values in the screen are far below 50% and negative numbers occur (in some assays of this library far below -100). This is an unselected part of the compounds tested.

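Primary screen of methionyl-tRNA synthetase; the read-out is not stated. Target: Methionyl-tRNA synthetase (putative), Leishmania donovani (UniProt E9BF75). The test concentration is not given. The values are filed as inhibition. About 68,000 compounds were tested under these conditions; 0.035% (about 24) showed 50% or more at least once.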

structure,Inhibition
CN(C)CCCNC(=O)c1cc(Cl)ccc1Cl,16.49
CN(C)CCNC(=O)c1ccn(-c2ccc3ccccn23)n1,9.804
CNc1ncccc1CN1CCN(c2cc(NC3CC3)nc(N)n2)CC1,3.922
Cc1ccc(NCc2cn3c(n2)CN(Cc2ccc(C)o2)CC3)nn1,24.81
Cc1ccc(C(C)N(C)Cc2nc3c(cnn3C)c(=O)[nH]2)s1 (stereo not drawn),11.11
Cc1nc(C)c(CN2CCC(N(C)Cc3nnc(C4CC4)o3)C2)s1 (stereo not drawn),15.91
CC(C)OCCOCc1cccc(NC(=O)NCc2cnn(C)c2)c1,4.969
COc1c(C2CCCN2C(=O)c2ccnn2C)c(C)nn1C (stereo not drawn),8.361
CC(CNS(N)(=O)=O)Oc1cccc(Cl)c1 (stereo not drawn),8.791
Cc1ccc(-c2nn(C)c(C(=O)O)c2Br)cc1,0.9091
O=C(NC1CCCCC1)NC1CCCc2c1cnn2CCO (stereo not drawn),13.26
Cc1occc1C(=O)Nc1cc(N2CCNC2=O)ccc1Cl,6.849
CCc1nc(C)sc1CN1CC[C@](C)(O)[C@H](C)C1,15.92
Cc1nc(NC(=O)C2CCCN(C(=O)C3CC3)C2)sc1C (stereo not drawn),22.53
Cc1cccc(CN2CCc3ncnc(N4CCN(C)CC4)c3CC2)n1,5.521
Cc1nn(C)c(C)c1CN(C)C(C(=O)O)c1ccc(F)cc1F (stereo not drawn),11.75
Cc1cc(C)c2nc(C3CC3)cc(C(=O)N3CCCC3C(N)=O)c2c1 (stereo not drawn),4.178
NC(=O)COc1ccc(CNCc2c(F)cccc2F)cc1,20.11
Cn1ncnc1NS(=O)(=O)c1ccc(F)cc1,3.866
CCc1ocnc1C(=O)N1CCOC(c2nc(C(C)C)n[nH]2)C1 (stereo not drawn),15.97
Cc1ccc(F)c(OC2(C(=O)O)CCN(C(=O)c3ccccc3)CC2)c1,9.22
COc1cccc(C(C)N2CCN(S(=O)(=O)c3ccccc3)CC2)c1 (stereo not drawn),15.54
Cc1ccc2nc(CN(Cc3ccc(C#N)cc3)C(C)C)cc(=O)n2c1,4.83
O=C(c1ccco1)N1CCC[C@]2(C[C@H](Oc3ncccc3F)CO2)C1,10.62
Cc1ccccc1[C@@H]1CN(Cc2ccc(C(F)(F)F)nc2)C[C@H]1C(=O)O,12.46
O=C(c1csc(Br)c1)N1CCCC(n2ccnc2)C1 (stereo not drawn),9.028
Cc1cnn(CC2CN(CCS(C)(=O)=O)CCO2)c1 (stereo not drawn),22.85
O=C(c1ccc2ccccc2n1)N1CCC2(CCN2c2ncccn2)C1 (stereo not drawn),11.04
O=C(Cc1cc2c(cc1Cl)OCCO2)N1CC[C@H](CO)[C@H](O)C1,8.571
COc1cccc(Cc2nc3c([nH]2)CC(C)(C)CNC3=O)c1OC,6.723
COc1cccc(CN(Cc2ncc[nH]2)Cc2ccco2)c1,16.04
COCC1CC2(CCN(CC3CC3)CC2)CN1c1ncccn1 (stereo not drawn),8.148
CCN(Cc1ccccc1)C(=O)CCN1C[C@@H](C(=O)O)[C@H](C2CC2)C1,6.527
O=C(CS(=O)(=O)Cc1ccc(F)cc1)NCc1ccccc1F,17.58
CCS(=O)(=O)CCNc1nc(C2CCCC2)nc2c1cnn2C,17.02
Cc1cc(-c2cnc(NC3CCCC3)nc2-c2ccc(C)o2)on1,23.96
Cn1ccc(C(=O)NC2CCC23CCN(C(=O)c2ccccn2)CC3)c1 (stereo not drawn),24.44
CN1[C@H](CO)C[C@H](CNCc2ccc(CO)o2)[C@@H]1c1ccccc1F,11.28
CC(C)(C)c1cnc(CN2CCC(CO)CC2)o1,11.02
CCCN(C(=O)c1ccc(-n2ccnn2)cc1)c1cccnc1,13.46
CCS(=O)(=O)N1CCC(c2nccn2Cc2ccncc2)CC1,5.974
Cc1noc(C)c1CNC(=O)N(C)C1CCN(c2ccccc2)C1=O (stereo not drawn),8.947
CC(C)c1nnc(CNC2CCCN(Cc3noc(C4CC4)n3)C2)o1 (stereo not drawn),17.13
CCN(C(=O)c1ccc(-n2ncc(C#N)c2N)cc1)C1CCCC1,14.98
O=C(c1ccnnc1)N1C[C@H](Oc2ccccn2)[C@H]2OCCC[C@H]21,13.14
CCC(C)N(CCOC)Cc1nc2c(cnn2C)c(=O)[nH]1 (stereo not drawn),9.726
CC(NCc1cnc(N2CCN(C)CC2)nc1)c1ccc(F)cc1 (stereo not drawn),3.631
CC1CCCN(CCNC(=O)c2ccn(-c3ccc(F)cc3)n2)C1 (stereo not drawn),20.23
CN1CCN(C[C@H]2CC[C@@H](Cc3ccc4c(c3)OCO4)O2)CC1,9.429
O=S(=O)(c1cccs1)N1CCCn2cnc(CO)c2C1,19.26
Cc1noc(C)c1CN1CCc2ncnc(-c3ccncc3)c2CC1,4.134
Cc1cc(C)n(-c2ccc(N3CCC(O)CC3)nc2)n1,12.45
O=C(CNC1CCc2ncnn2C1)NCCc1cccs1 (stereo not drawn),-1.359
Cc1ccccc1CC(=O)N1C[C@@H]2COC[C@]2(CN(C)C)C1,-20.92
O=C(c1ccco1)N1C[C@H]2CCCN(CC3CC3)[C@H]2C1,5.882
Cc1nc(C)c(S(=O)(=O)NC(=O)c2ccoc2)s1,12.31
Cn1cnc2c1CCN(Cc1noc(-c3ccccc3)n1)C2,13.39
CC(Cn1cccn1)NCc1nc(-c2ccccn2)no1 (stereo not drawn),13.71
Cc1nc(CN2CCCC(NCc3cccc4ccccc34)C2)no1 (stereo not drawn),7.692
Cc1cc(O)c(OCC(=O)/N=c2\[nH]cc(C)s2)cn1,16.2
Nc1cnc(-c2ccc(F)cc2Cl)cn1,6.164
CCn1c(C)cc(C(=O)N2CCCC(n3ccnc3C)C2)c1C (stereo not drawn),2.87
CCNc1cc2c(nn1)CCN(C(=O)c1ccc(NC3CC3)nc1)C2,17.35
Cc1cc(NC(=O)CN2CCCC2c2noc(C3CC3)n2)on1 (stereo not drawn),21.07
N#Cc1ccsc1NC(=O)CN1CCOC(Cn2cccn2)C1 (stereo not drawn),8.947
CSCCC(=O)N1CCN(CC(C)O)CC1 (stereo not drawn),9.366
CCNc1cc2c(nn1)CCN(C(=O)Cc1noc3ccccc13)C2,15.75
CC(=O)Nc1c(C)noc1/C=C\c1ccc(S(=O)(=O)N2CCCC2)cc1,6.843
CCc1ncnc(N2CCOCC2C2CC2)c1F (stereo not drawn),7.508
CSC1(CNC(=O)NCc2sccc2C)CCOCC1,18.12
Clc1ccccc1C1CN(CCc2ccncc2)CCO1 (stereo not drawn),10.75
CCN(CC)C(=O)Cn1ccc2cc(NC(=O)C3CC3)ccc21,14.29
CNc1cccc(C2CCCN(Cc3ncc[nH]3)C2)n1 (stereo not drawn),16.13
c1c(CN2CCOCC2)nc2n1CCN(C1CCOCC1)C2,13.11
CC(C)NC(=O)c1ccc2c(c1)nc1n2CCN(c2ccccc2)C1,25.31
Cc1noc(CN(C)Cc2ccc3c(c2)OCO3)n1,8.333
Cc1cnc(N2CCCn3c(nnc3Cn3cccn3)C2)nc1,0.3484
CCc1cc(C(=O)N2CCC(c3cc4ncccc4cn3)CC2)no1,5.788
Cc1nc(NCc2scnc2-c2ccccc2)cc(C2CCNCC2)n1,9.296
COCCN1CCN(S(=O)(=O)C2CC2)Cc2ccc(C)nc21,14.29
c1ccc(-c2nnn3c2COC(CNCC2CCOCC2)C3)cc1 (stereo not drawn),19.86
Cc1[nH]c(=O)sc1S(=O)(=O)N1CCCC1C(=O)NCc1ccsc1 (stereo not drawn),16.09
c1ccc(-c2cc(CNCCCC3CCOC3)c3nnnn3c2)cc1 (stereo not drawn),8.36
O=C1CC2(CCN(CC3CC3)CC2)CN1Cc1cc(F)cc(F)c1,9.577
Cc1cc(CNC(=O)NCc2cccs2)no1,15.1
Cc1ccc(F)cc1C(=O)N1CCN(S(C)(=O)=O)[C@@H](C)C1,5.988
COc1cccc(C(=O)N2CCc3ncnc(C)c3CC2)c1,14.5

The first 11 entries again:

structure,Inhibition
CN(C)CCCNC(=O)c1cc(Cl)ccc1Cl,16.49
CN(C)CCNC(=O)c1ccn(-c2ccc3ccccn23)n1,9.804
CNc1ncccc1CN1CCN(c2cc(NC3CC3)nc(N)n2)CC1,3.922
Cc1ccc(NCc2cn3c(n2)CN(Cc2ccc(C)o2)CC3)nn1,24.81
Cc1ccc(C(C)N(C)Cc2nc3c(cnn3C)c(=O)[nH]2)s1 (stereo not drawn),11.11
Cc1nc(C)c(CN2CCC(N(C)Cc3nnc(C4CC4)o3)C2)s1 (stereo not drawn),15.91
CC(C)OCCOCc1cccc(NC(=O)NCc2cnn(C)c2)c1,4.969
COc1c(C2CCCN2C(=O)c2ccnn2C)c(C)nn1C (stereo not drawn),8.361
CC(CNS(N)(=O)=O)Oc1cccc(Cl)c1 (stereo not drawn),8.791
Cc1ccc(-c2nn(C)c(C(=O)O)c2Br)cc1,0.9091
O=C(NC1CCCCC1)NC1CCCc2c1cnn2CCO (stereo not drawn),13.26